Data as given in PubChem BioAssay AID1259308 (NCATS, 2017)
Shown is an unselected part of about 59,000 deposited reagents. About 1,510 of them (2.6%) were called active. 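Calls use total luciferase alone and ignore viability, so some active siRNAs may act by altering cell number.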 Unmarked entries are inactive. The numbers tell different reagents against one gene apart. Not all columns of the deposit are shown.

Assay: 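Genes whose loss raises luciferase production in HEK293 cells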 (primary screen)
System: human HEK293 embryonic kidney cells stably expressing firefly luciferase (HEK-CMV-Luc2-Hygro)
Reagent: single siRNA against human genes, 0.8 pmol siRNA per well
Timing: 72 h
Measurement: 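Reporter luminescence and viable-cell signal on separate replicate plates, given as percent of non-targeting control and median/MAD z-scores, plus per-cell luciferase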
Direction: total luciferase, z-score and total luciferase, % of control: higher = more reporter protein produced
Rule for the call: 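An siRNA counts as active if its total luciferase robust z-score exceeds 3; genes with two or more such siRNAs out of three were retested with fresh siRNAs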
Calls: active = raised luciferase; inactive = no rise

gene,siRNA no.,"total luciferase, z-score","total luciferase, % of control"
GGT1 (gamma-glutamyltransferase 1),1,-0.101,79.9
GGT1 (gamma-glutamyltransferase 1),2,-2.12,39.8
GGT1 (gamma-glutamyltransferase 1),3,5.19 (active),185
KRTAP6-3 (keratin associated protein 6-3),1,2.17,125
KRTAP6-3 (keratin associated protein 6-3),2,-0.662,68.7
KRTAP6-3 (keratin associated protein 6-3),3,-2.46,33
"TLE1 (TLE family member 1, transcriptional corepressor)",1,0.381,89.5
"TLE1 (TLE family member 1, transcriptional corepressor)",2,0.207,86
"TLE1 (TLE family member 1, transcriptional corepressor)",3,-0.52,71.5
ZIC3 (Zic family zinc finger 3),1,-0.0218,81.5
ZIC3 (Zic family zinc finger 3),2,2.49,131
ZIC3 (Zic family zinc finger 3),3,-0.37,74.5
GTF2E2 (general transcription factor IIE subunit 2),1,-1.54,51.2
GTF2E2 (general transcription factor IIE subunit 2),2,-1.18,58.4
GTF2E2 (general transcription factor IIE subunit 2),3,-1.17,58.6
MTRES1 (mitochondrial transcription rescue factor 1),1,0.28,87.5
MTRES1 (mitochondrial transcription rescue factor 1),2,2.45,131
MTRES1 (mitochondrial transcription rescue factor 1),3,1.42,110
ZNF304 (zinc finger protein 304),1,-0.24,77.1
ZNF304 (zinc finger protein 304),2,-0.129,79.3
ZNF304 (zinc finger protein 304),3,0.0803,83.5
DYNC1I2 (dynein cytoplasmic 1 intermediate chain 2),1,-1.22,57.6
DYNC1I2 (dynein cytoplasmic 1 intermediate chain 2),2,0.851,98.8
DYNC1I2 (dynein cytoplasmic 1 intermediate chain 2),3,-0.191,78.1
SCN3A (sodium voltage-gated channel alpha subunit 3),1,-0.175,78.4
SCN3A (sodium voltage-gated channel alpha subunit 3),2,-0.236,77.2
SCN3A (sodium voltage-gated channel alpha subunit 3),3,-0.444,73.1
"ST6GALNAC4 (ST6 N-acetylgalactosaminide alpha-2,6-sialyltransferase 4)",1,-0.164,78.6
"ST6GALNAC4 (ST6 N-acetylgalactosaminide alpha-2,6-sialyltransferase 4)",2,0.337,88.6
"ST6GALNAC4 (ST6 N-acetylgalactosaminide alpha-2,6-sialyltransferase 4)",3,-0.856,64.9
NPY (neuropeptide Y),1,0.196,85.8
NPY (neuropeptide Y),2,0.0391,82.7
NPY (neuropeptide Y),3,0.158,85
TMCO5A (transmembrane and coiled-coil domains 5A),1,-1.01,61.7
TMCO5A (transmembrane and coiled-coil domains 5A),2,-0.918,63.6
TMCO5A (transmembrane and coiled-coil domains 5A),3,0.907,99.9
NTF3 (neurotrophin 3),1,1.49,112
NTF3 (neurotrophin 3),2,2.21,126
NTF3 (neurotrophin 3),3,1.85,119
CCNYL3 (cyclin Y like 3 (pseudogene)),1,1.56,113
CCNYL3 (cyclin Y like 3 (pseudogene)),2,-0.453,72.9
CCNYL3 (cyclin Y like 3 (pseudogene)),3,0.14,84.7
PABPC4L (poly(A) binding protein cytoplasmic 4 like),1,0.754,96.9
PABPC4L (poly(A) binding protein cytoplasmic 4 like),2,-0.359,74.7
PABPC4L (poly(A) binding protein cytoplasmic 4 like),3,-0.315,75.6
"PMPCB (peptidase, mitochondrial processing subunit beta)",1,0.118,84.2
"PMPCB (peptidase, mitochondrial processing subunit beta)",2,-0.387,74.2
"PMPCB (peptidase, mitochondrial processing subunit beta)",3,4.41 (active),170
ADAMTS4 (ADAM metallopeptidase with thrombospondin type 1 motif 4),1,0.326,88.4
ADAMTS4 (ADAM metallopeptidase with thrombospondin type 1 motif 4),2,-0.0838,80.2
ADAMTS4 (ADAM metallopeptidase with thrombospondin type 1 motif 4),3,-0.00473,81.8
LOC729291,1,0.951,101
LOC729291,2,-0.00337,81.8
LOC729291,3,-0.536,71.2
PCED1B (PC-esterase domain containing 1B),1,-0.418,73.6
PCED1B (PC-esterase domain containing 1B),2,2.34,129
PCED1B (PC-esterase domain containing 1B),3,-0.434,73.3

Reagents above called active:
gene,siRNA no.,"total luciferase, z-score","total luciferase, % of control"
GGT1 (gamma-glutamyltransferase 1),3,5.19 (active),185
"PMPCB (peptidase, mitochondrial processing subunit beta)",3,4.41 (active),170
